{
  "source": "the supplement of paper PMC10338343",
  "note": "± gives the standard deviation. The list shows a part of the results, in another mix than the full data. Many of these values have a large error.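 Note: 1 nM active piRISC with 0.1 nM target library at 33 °C single turnover.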",
  "data": [
    {"tested_on": "MILI (PIWIL2) piRISC loaded with L1MC piRNA (26 nt)", "experiment": "pre-steady-state target cleavage rate (min^-1); higher = faster piRNA-guided slicing of the target", "conditions": "guide: L1MC piRNA 5'p-UAACUAAAUACUAUGCAAGCUGUAGG; auxiliary factor: 500 nM mouse GTSF1", "outline": "(§1)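 The pre-steady-state cleavage rate was calculated from a burst-and-steady-state fit. Data came from Cleave-'n-Seq, in which […] transcribed, DNA-blocked target RNA library was mixed with 1 nM active affinity-purified piRISC carrying one synthetic guide, with or without 500 nM GTSF1 partner protein, in HEPES–potassium acetate buffer at 33 °C for 0–8 or 0–960 min. Uncleaved targets were sequenced and normalised to depth and to weakly complementary targets, three trials were pooled, and k3 was capped at 0.0001 min^-1.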", "values": [
      {"sequence": "UCCUGGAUGAGCUUGCAUAGUAUUUGAGUUA", "pre-steady-state target cleavage rate": "0.307 ± 0.051"},
      {"sequence": "UCCUGGUACAGCUUGCAUAGUAUUUAGUUC [g2:g24:cont:t1C]", "pre-steady-state target cleavage rate": "0.3 ± 0.016"},
      {"sequence": "UCCUGGAUGUCGAACGUAAGUAUUUACUAA", "pre-steady-state target cleavage rate": "0.000166 ± 0.04"},
      {"sequence": "UCCUGGAUGUCGAACGAUAGUAAUAAGUUA", "pre-steady-state target cleavage rate": "< 0.0001"},
      {"sequence": "UCCUGGAUGUCGAACCAUAGAUUUAGUUA", "pre-steady-state target cleavage rate": "0.000143 ± 0.037"},
      {"sequence": "UCCUGGAUGUCGAACGUAUGUAUUUAUUUA", "pre-steady-state target cleavage rate": "< 0.0001"},
      {"sequence": "UCCUGGAUGUCGAACGUAAGUAUUUUAGUUA", "pre-steady-state target cleavage rate": "0.000216 ± 0.029"},
      {"sequence": "UCCUGGAUGUCGAACGUAAGUAUAAAGUUA", "pre-steady-state target cleavage rate": "0.00018 ± 0.028"}
    ]},
    {"tested_on": "MILI (PIWIL2) piRISC loaded with L1MC piRNA (26 nt)", "experiment": "pre-steady-state target cleavage rate (min^-1); MIWI and MILI are mouse PIWI proteins and EfPiwi is from a freshwater sponge; tags in brackets are library labels; higher = faster piRNA-guided slicing of the target", "conditions": "guide: L1MC piRNA 5'p-UAACUAAAUACUAUGCAAGCUGUAGG; auxiliary factor: none (no GTSF1)", "outline": "as §1", "values": [
      {"sequence": "UCCUCCUACAGCUAGCAUAGUAUUUUGUUA", "pre-steady-state target cleavage rate": "0.00245 ± 0.0025"},
      {"sequence": "UCCUGGAUGAGCUUGCAUAGUAUAAAGUUA", "pre-steady-state target cleavage rate": "0.00273 ± 0.0029"},
      {"sequence": "UCCUGGAUGUCGAAGCUUAGUAUUUAGUAA", "pre-steady-state target cleavage rate": "0.000203 ± 0.024"},
      {"sequence": "UCCUGGAUGUCGAACGUAAGUCUUUAGUUA", "pre-steady-state target cleavage rate": "0.000193 ± 0.019"},
      {"sequence": "UCCUGGAUGUCGAAGCAUAGUAUUAUGUUA", "pre-steady-state target cleavage rate": "0.00101 ± 0.0067"},
      {"sequence": "UCCUCCUACACCUUGCAUAGUAUUUACAAA", "pre-steady-state target cleavage rate": "0.00179 ± 0.0035"},
      {"sequence": "UCCUGGAUGUCGAACGAUAGUAUCUUAGUUA", "pre-steady-state target cleavage rate": "0.000127 ± 0.032"},
      {"sequence": "UCCUCCUAGUGCUUGCAUAGUAUUUAGAAA", "pre-steady-state target cleavage rate": "0.00068 ± 0.0063"},
      {"sequence": "UCCUGGAUGUCGAACGUAUCAAUUUAGUUU [g2:g9:cont:t1U]", "pre-steady-state target cleavage rate": "0.000222 ± 0.02"},
      {"sequence": "UCCUGGUUGUGCUUGCAUAGUAUUUAGAAA", "pre-steady-state target cleavage rate": "0.00285 ± 0.0031"},
      {"sequence": "UCCUGCAUGAGCUUGCAUAGUAUUUAGAAA", "pre-steady-state target cleavage rate": "0.00129 ± 0.0043"},
      {"sequence": "UCCUGGAUGUCGAACGUAUGUAAUUUAGUUA", "pre-steady-state target cleavage rate": "0.000174 ± 0.026"},
      {"sequence": "UCCUGGAUGUCGAAGUCAUAGUAUUUAGUUA", "pre-steady-state target cleavage rate": "0.00105 ± 0.0047"},
      {"sequence": "UCCUGGAUGUCGAACGUUAGUAUAUAGUAA", "pre-steady-state target cleavage rate": "0.000261 ± 0.019"},
      {"sequence": "UCCUGGAUCAGCUUGCAUUGUAUUUACUUA", "pre-steady-state target cleavage rate": "0.00257 ± 0.0031"},
      {"sequence": "UCCUGGAUGUCGAACGUAUCUAAUUAGUUA", "pre-steady-state target cleavage rate": "< 0.0001"},
      {"sequence": "UCCUGGAUGUCGAACGUUUGUAUUAAGUUA", "pre-steady-state target cleavage rate": "0.00014 ± 0.023"},
      {"sequence": "UCCUGGUACAGCUUGCAUAGUAUUUUGAAA", "pre-steady-state target cleavage rate": "0.00244 ± 0.0033"},
      {"sequence": "UCCUGGAUGUCGAACGUUAGUAUUAUCAAA [g7:g13:cont:t1A]", "pre-steady-state target cleavage rate": "0.000236 ± 0.016"},
      {"sequence": "UCCUGGUAGUGCUUGCAUAGUAUUUAGAAA", "pre-steady-state target cleavage rate": "0.00137 ± 0.0047"},
      {"sequence": "UCCUGGUACAGCUUGCGAUAGUAUUUAGUUA", "pre-steady-state target cleavage rate": "0.00111 ± 0.0067"},
      {"sequence": "UCCUGGAUGUGCUUGCAUAGUAAAAAGAAA", "pre-steady-state target cleavage rate": "0.000665 ± 0.0091"},
      {"sequence": "UCCUGGAUGAGCUUGGAUAGUAUUUAGAUA", "pre-steady-state target cleavage rate": "0.00118 ± 0.0046"},
      {"sequence": "UCCUGGAUGAGCUUGCAUAGUAUUAAGAUA", "pre-steady-state target cleavage rate": "0.0012 ± 0.0047"},
      {"sequence": "UCCUGCUACACCUUGCAUAGUAUUUACUUA", "pre-steady-state target cleavage rate": "0.0014 ± 0.006"},
      {"sequence": "UCCUGGAUGUCGAACGUAUGUAUUUCGUUA", "pre-steady-state target cleavage rate": "< 0.0001"},
      {"sequence": "UCCUGGAUCAGCUUGCAAAGAAUUUAGUUA", "pre-steady-state target cleavage rate": "0.00211 ± 0.0031"},
      {"sequence": "UCCUGGUACAGCUUGCAUAGUAUUUACAUA", "pre-steady-state target cleavage rate": "0.00276 ± 0.0042"},
      {"sequence": "UCCUGGAUGUCGAACGUAAGUAUUUAGGUUA", "pre-steady-state target cleavage rate": "0.000283 ± 0.019"},
      {"sequence": "UCCUGGAACAGCAACCAUAGUAUUUAGAAA", "pre-steady-state target cleavage rate": "0.000721 ± 0.0078"},
      {"sequence": "UCCUGGAUGUCGAACCAUAGUUAAUAGUUA", "pre-steady-state target cleavage rate": "0.000202 ± 0.021"},
      {"sequence": "UCCUGGAUGAGCUUGCAUACAAUUUAGAAA", "pre-steady-state target cleavage rate": "0.000512 ± 0.013"}
    ]}
  ]
}
